Source: publication PMC6355983, “Structure of the Large Extracellular Loop of FtsX and Its Interaction with the Essential Peptidoglycan Hydrolase PcsB in Streptococcus pneumoniae” (mBio, 2019)
No constants are given. Whether binding was seen depends on the method and setting. Some entries that bind do so weakly or less than the wild type. One block for each molecule: values may come before it.

By UniProt entry, the sequences of proteins in these tests, tags left out. Where a name states a change or a piece, a line headed by the entry shows the natural chain unless it says otherwise. Residues count along the entry.
UniProt A0A0H2US70: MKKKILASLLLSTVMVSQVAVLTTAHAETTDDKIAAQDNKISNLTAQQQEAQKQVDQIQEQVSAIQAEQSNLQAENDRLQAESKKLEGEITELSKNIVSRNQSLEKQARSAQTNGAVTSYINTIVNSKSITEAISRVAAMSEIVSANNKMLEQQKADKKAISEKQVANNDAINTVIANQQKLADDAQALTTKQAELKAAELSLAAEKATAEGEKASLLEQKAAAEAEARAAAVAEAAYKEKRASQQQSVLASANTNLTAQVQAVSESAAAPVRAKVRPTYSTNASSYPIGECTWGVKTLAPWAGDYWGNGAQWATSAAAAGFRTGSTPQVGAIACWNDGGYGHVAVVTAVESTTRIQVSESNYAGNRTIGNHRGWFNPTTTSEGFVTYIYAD
PcsB coiled-coil domain, PscBCC(47–254): residues 47-254 of A0A0H2US70

How the values were obtained:
[1] = biological target: T1, FtsX large extracellular loop 1 (FtsX_(ECL1)), residues 46 to 168 (Streptococcus pneumoniae) (UniProt Q04LE4); experiment: NMR titration; 1H-15N HSQC; 50 µM 15N-labelled FtsX_(ECL1) with unlabelled PscBCC(47–267) added (0, 50, 100, 200, 400 µM); 298 K; 50 mM potassium phosphate, pH 7.0, 50 mM NaCl, 10% D2O; both purified
T1 sequence: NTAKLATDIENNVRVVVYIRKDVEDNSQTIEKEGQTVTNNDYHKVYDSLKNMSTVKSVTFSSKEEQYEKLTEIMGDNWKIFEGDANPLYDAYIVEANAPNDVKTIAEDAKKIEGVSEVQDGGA

[2] = biological target: PcsB coiled-coil domain, PscBCC(47–254) (Streptococcus pneumoniae); experiment: NMR titration; reciprocal 1H-15N HSQC; 50 µM 15N-labelled PscBCC(47–254) with 1, 2 and 4 molar equivalents of unlabelled FtsX_(ECL1); both purified

binding [1]: binds
Molecule: PcsB coiled-coil domain, PscBCC(47–267) (from UniProt A0A0H2US70 47-267) (domain or fragment)

B1: FtsX large extracellular loop 1 (FtsX_(ECL1)), residues 46 to 168 (domain or fragment, Streptococcus pneumoniae, UniProt Q04LE4 46-168, looked up)
chain: T1 sequence
notes: FtsX, Streptococcus pneumoniae, large extracellular loop (ECL1), residues 46 to 168; Uniformly 15N-labelled when observed by NMR, unlabelled when added to 15N PcsBCC(47-254) and in ITC; also called wild-type (WT) FtsX_(ECL1); Spn ECL1; source: E. coli strain derived from BL21(DE3); LB or M9 minimal medium with 15NH4Cl
binding [2]: binds
